Assay results as given in patent US20160046678A1 (ZYNGENIA, published 2016).
Results are given in words; binding and its absence hold for the method and conditions named. Some entries that bind do so weakly or less than the wild type.

By UniProt entry, the sequences of proteins in these tests, tags left out. Residues count along the entry.
UniProt P05231, residues 30-212: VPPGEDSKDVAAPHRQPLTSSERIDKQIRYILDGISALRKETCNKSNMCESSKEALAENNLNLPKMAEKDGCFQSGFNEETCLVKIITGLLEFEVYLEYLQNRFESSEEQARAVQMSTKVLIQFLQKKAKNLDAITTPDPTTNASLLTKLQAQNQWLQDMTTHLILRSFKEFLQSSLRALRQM

biological target: IL6 (UniProt P05231); experiment: MRD identification, Example 48

Row | binding | Binder
1 | binds | RSIECFWDPLMMECMGYV [ILB463]
2 | binds | WYTHSLQMWGQAGQGSATGGSSFNEDCMWDPLLMDCAYSP [ILB477]
3 | binds | YYYSWPMCYWDPHMLFCL [ILB465]
4 | binds | WCRPTDLKLVKGQAGQGSFNEDCMWDPLLMDCAYSP [ILB500]
5 | binds | EVNHVEDFPAGQAGQGSFNEDCMWDPLLMDCAYSP [ILB476]
6 | binds | DWQYYSSKTYGQAGQGSATGGSSFNEDCMWDPLLMDCAYSP [ILB473]
7 | binds | GPVEESAPQYGQAGQGSATGGSSFNEDCMWDPLLMDCAYSP [ILB480]
8 | binds | LPPPCYWTTWGKECQMFD [ILB490]
9 | binds | HVGWHAMNPWGQAGQGSFNEDCMWDPLLMDCAYSP [ILB482]
10 | binds | PDWITWQPAWGQAGQGSATGGSSFNEDCMWDPLLMDCAYSP [ILB485]
11 | binds | WIMSLSWPMAGQAGQGSATGGSGSTASSFNEDCMWDPLLMDCAYSP [ILB481]
12 | binds | VEPIPYTMMRGQAGQGSFNEDCMWDPLLMDCAYSP [ILB491]
13 | binds | VYWYDVKWTWGQAGQGSFNEDCMWDPLLMDCAYSP [ILB494]
14 | binds | LPLLRFPCDGKQLWKFCL [ILB457]
15 | binds | DCEQNQTYCVGQAGQGSFNEDCMWDPLLMDCAYSP [ILB495]
16 | binds | LGMTFYVCPWDPLLMLCI [ILB464]
17 | binds | WWPNYTWDHPQGSATGGSSFNEDCMWDPLLMDCAYSP [ILB497]
18 | binds | TQEMWFTGINGQAGQGSATGGSSFNEDCMWDPLLMDCAYSP [ILB487]
19 | binds | FCVWDPLLMDCSGNTFYF [ILB450]
20 | binds | VMWQWEEGHWGQAGQGSFNEDCMWDPLLMDCAYSP [ILB486]
21 | binds | PDWITWQPAWGQAGQGSFNEDCMWDPLLMDCAYSP [ILB474]
22 | binds | QVSYCPWDPLLMQCQLSG [ILB461]

Row | binding | Binder
23 | binds | QSPSASHIMGGQAGQGSFNEDCMWDPLLMDCAYSP [ILB479]
24 | binds | DNWWRIWDKQGQAGQGSFNEDCMWDPLLMDCAYSP [ILB488]
25 | binds | RWPFCHWDPLLMMCSVSY [ILB455]
26 | binds | PCYWDPLLMRCMLQVDNW [ILB467]
27 | binds | RPSLVPICYWDPLLMICI [ILB470]
28 | binds | FFSDCNWDPLLMHCANKL [ILB469]
29 | binds | VTWFMYQDRAGQAGQGSFNEDCMWDPLLMDCAYSP [ILB489]
30 | binds | VFPWCYWDPLMMDCAIQN [ILB445]
31 | binds | VWTAFIQMNSGQAGQGSATGGSSFNEDCMWDPLLMDCAYSP [ILB483]
32 | binds | HLSLLMDCCWDPLTMQCT [ILB454]
33 | binds | GFPECFWDPLLMDCTYWF [ILB441]
34 | binds | MCNPMESECHGQAGQGSATGGSSFNEDCMWDPLLMDCAYSP [ILB493]
35 | binds | YLPSWLSCSWDPLLMICS [ILB453]
36 | binds | TCAWDPLLMVCRYPCPAF [ILB451]
37 | binds | AALECPWDPLMMSCIKTS [ILB452]
38 | binds | GPDVTQYVKFGQAGQGSFNEDCMWDPLLMDCAYSP [ILB478]
39 | binds | ILB498 (peptide) peptide: DGSPGYRAYHSQFGQAGQGSATGGSGSTASSGSGSSFNEDCMWDPLLMDCAYSP
40 | binds | RIVVMEQMQIGQAGQGSATGGSSFNEDCMWDPLLMDCAYSP [ILB492]
41 | binds | DKSGGLVAIQGQAGQGSFNEDCMWDPLLMDCAYSP [ILB501]
42 | binds | WPWFEQEHFWGQAGQGSFNEDCMWDPLLMDCAYSP [ILB499]
43 | binds | NMYHEHAAWGQAGQGSATGGSSFNEDCMWDPLLMDCAYSP [ILB475]
44 | binds | NYFNCVWDPLRMDCQYFM [ILB471]
